Measurements as given in US20260335468A1, “MOLECULAR RADIOAFTERGLOW PROBES FOR CANCER RADIODYNAMIC THERANOSTICS” (NANYANG TECHNOLOGICAL UNIVERSITY, priority 2023, published 2026).

Test: In vivo limit of detection of subcutaneously injected IDPASu (radio afterglow)
Set-up: species or system mouse (BALB/c nude)
Settings: y = a + b*x, radio afterglow intensity versus IDPASu concentration
Protocol: To test the LOD of IDPASu for in vivo RAI, 20 μl of the mixture solution of IDPASu at different concentrations (100.0, 50.0, 20.0, 10.0, 5.0, 1.0, 0.5 and 0 μM) and solubilizing agent (2-carboxyethyl)-o-cyclodextrin sodium salt (β-CD) at 100 μM was subcutaneously injected into the left flank of BALB/c nude mice (six weeks old). After 30 min, the left flank of mice were irradiated with X-rays at 5 mGy (250 μGy s^−1 for 20 s) as the other areas were protected by a 3.4-mm-thick lead shield with a notch under the X-ray irradiation. Radio afterglow signals were recorded. The detection limit was calculated using this equation: LOD=3σ/k, where a represents the s.d. of blank and k implies the slope of the radio afterglow intensities.

## COC(=C1C2CC3CC(C2)CC1C3)c1cc(O)c(I)cc1/C=C/C1=CC(=C(C#N)C#N)c2ccccc2S1 [IDPASu]
  linear regression of FIG. 13b: Slope: 18319.0083 ± 307.5
